# Laboratory results published in PubChem BioAssay AID2551 (National Center for Advancing Translational Sciences (NCATS), 2010).
# Chains of the proteins cited; added tags and fusions are not shown. Lines headed by an entry give the natural chain unless they say otherwise; changes in a name come on top.
# UniProt P51450: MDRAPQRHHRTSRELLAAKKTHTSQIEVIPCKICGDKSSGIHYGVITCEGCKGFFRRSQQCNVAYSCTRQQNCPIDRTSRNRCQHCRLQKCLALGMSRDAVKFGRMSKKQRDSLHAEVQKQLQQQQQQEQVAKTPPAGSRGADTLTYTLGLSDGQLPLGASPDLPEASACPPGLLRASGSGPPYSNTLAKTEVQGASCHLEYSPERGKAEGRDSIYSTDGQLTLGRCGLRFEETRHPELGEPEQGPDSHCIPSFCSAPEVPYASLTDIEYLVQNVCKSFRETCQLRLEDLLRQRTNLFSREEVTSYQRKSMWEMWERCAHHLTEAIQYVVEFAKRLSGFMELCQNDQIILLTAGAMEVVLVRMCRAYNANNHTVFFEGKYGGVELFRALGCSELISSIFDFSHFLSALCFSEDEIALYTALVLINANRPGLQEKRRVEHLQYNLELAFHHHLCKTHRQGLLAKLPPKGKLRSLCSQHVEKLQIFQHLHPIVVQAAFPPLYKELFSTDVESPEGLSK
# The whole screen tested about 310,000 compounds, of which about 17,000 (5.5%) were called active. The shares of active, inactive and inconclusive entries below differ from those in the screen. Calls come from the whole dose curve; as a rule, active = well fitted inhibition curve with a large enough effect; inconclusive = small, poorly fitted or top-dose-only effect, or effect the other way; inactive = no such curve, though single readings can be large or run the other way. Potencies beside an inconclusive call are fits to weak or partial responses and may not hold up.
# Target: Nuclear receptor ROR-gamma (Mus musculus) (UniProt P51450)
# Test: qHTS for inhibitors of ROR gamma transcriptional activity; note: nearly all actives have a fitted effect of over 60% in size
# Conditions: Drosophila S2 Gal4-RORgamma UAS-luciferase reporter, 20 h; series mostly up to 53.6 µM
# Method in brief: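 Stable Schneider cell line, Gal4 DNA-binding domain fused to ROR gamma, UAS-luciferase. Cmpd 1 hr RT → CuSO4 700 uM final → 20 hr RT → luciferase reagent 10 min → luminescence.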
# Potency is the fitted concentration of half-maximal effect.
row,SMILES,Potency
1,CC(=O)Oc1ccc(N2C(=O)C3C4C=CC(CO)(O4)C3C2=O)cc1 (stereo unspecified),active: 5.01 µM
2,COc1ccc(NC(=O)c2cc(S(=O)(=O)N3CCc4ccccc43)cn2C)cc1,"inconclusive: 28.2 µM [activator, single point]"
3,COc1ccc2[nH]c(=O)c3c(c2c1)OC(C)(C)C=C3,inactive
4,Cc1cc(/C=C2\SC(=S)NC2=O)c(C)n1-c1ccccc1,active: 10 µM
5,Nc1[nH]c(N=NC(=O)c2ccccc2O)c2ccccc12,"inconclusive: 14.1 µM [inhibitor, single point]"
6,Cc1ccc(Nc2cc(C)nc(-c3ccccc3O)n2)cc1,"inconclusive: 12.6 µM [activator, partial curve]"
7,COc1ccc(-c2ccc(SCC(=O)NCc3ccc4c(c3)OCO4)nn2)cc1OC,inactive
8,CCCN1CCN(CCCNC(=O)CN2C(=O)c3cccnc3Oc3ccc(Cl)cc32)CC1,inactive
9,CN(C)c1ccc(C(CN)c2c[nH]c3ccccc23)cc1 (stereo unspecified),inactive
10,O=C(CC(=O)Nc1ccc(Cl)c(Cl)c1)N/N=C/c1ccc(O)cc1,"inconclusive: 35.5 µM [activator, single point]"
11,CCOc1ccc(/C=C2\SC(N3CCc4ccccc4C3)=NC2=O)cc1,"inconclusive: 35.5 µM [activator, single point]"
12,O=C1COc2ccc(C(=O)COC(=O)Cn3cnc4ccccc43)cc2N1,"inconclusive: 0.0398 µM [activator, full curve, poor fit]"
13,O=C(NCc1ccccc1)c1cc(-c2ccco2)on1,"inconclusive: 2.82 µM [activator, full curve]"
14,CN1c2cc3c(cc2N=C(c2ccc(C(=O)O)cc2)c2ccccc21)C(C)(C)CCC3(C)C,"inconclusive: 35.5 µM [inhibitor, single point]"
15,Cc1cccc(Nc2nc(N)nc(CCl)n2)c1,"inconclusive: 7.08 µM [inhibitor, partial curve, poor fit]"
16,CC(C)c1ccc(OCC(=O)NNC(=S)NC(=O)c2ccco2)c(Br)c1,active: 6.31 µM
17,COc1nccc(-c2c(-c3ccc(F)cc3)ncn2C2CCC(O)CC2)n1 (stereo unspecified),"inconclusive: 22.4 µM [inhibitor, partial curve]"
18,Cc1ccc(S(=O)(=O)N2CCCCC2)cc1NC(=S)NC(=O)c1ccco1,"inconclusive: 12.6 µM [inhibitor, partial curve, poor fit]"
19,Cc1ccc(S(=O)(=O)Nc2cccc(C(=O)NCc3ccc(S(N)(=O)=O)cc3)c2)cc1,"inconclusive: 14.1 µM [activator, single point]"
20,O=C(N=Nc1c(O)n(C2OC(=O)c3ccccc32)c2ccccc12)c1ccc(O)cc1 (stereo unspecified),active: 2.82 µM
21,O=C(Nc1cccc(F)c1)c1cccnc1NCCc1ccccc1,inactive
22,Cc1cccc(C(=O)OCC(=O)NC(C)CCc2ccccc2)c1 (stereo unspecified),inactive
23,O=C(CSc1nnc(NC(=O)c2ccccc2)s1)NCC1CCCO1 (stereo unspecified),"inconclusive: 8.91 µM [inhibitor, partial curve]"

# Some of the entries so far, with tabs.
row	SMILES	Potency
8	CCCN1CCN(CCCNC(=O)CN2C(=O)c3cccnc3Oc3ccc(Cl)cc32)CC1	inactive
9	CN(C)c1ccc(C(CN)c2c[nH]c3ccccc23)cc1 (stereo unspecified)	inactive

# (list continues)

row,SMILES,Potency
1,C#Cc1cccc(NC(=O)c2ccc3c(c2)C(=O)N(Cc2cccnc2)C3=O)c1,"inconclusive: 10 µM [activator, partial curve]"
2,COc1ccc(NC(=O)CSc2ccc3ccccc3c2)cc1S(=O)(=O)N1CCCCC1,"inconclusive: 35.5 µM [activator, single point]"
3,COc1ccc(COCC(O)CN2CCC(C(N)=O)CC2)cc1OC (stereo unspecified),inactive
4,CCCCCn1c(=O)[nH]c2cc(C(=O)N3CCN(c4ccccc4F)CC3)ccc2c1=O,"inconclusive: 35.5 µM [inhibitor, single point]"
5,Cc1ccc(-c2nc3ccccc3[nH]2)cc1N,"inconclusive: 15.8 µM [inhibitor, single point]"
6,CCOC(=O)c1c(OCCO)noc1N,inactive
7,CSc1ccc(-c2nc(CSCC(=O)NCCCN3CCCC3=O)c(C)o2)cc1,"inconclusive: 3.98 µM [inhibitor, partial curve, poor fit]"
8,CNC(=S)Nc1ccc([N+](=O)[O-])c(C)c1,active: 10 µM
9,C=CCOc1ccc(CNn2nnnc2N)cc1,"inconclusive: 11.2 µM [activator, single point]"
10,CCN(CC)C1CCN(C(=O)c2cc(COc3ccc(F)cc3Cl)on2)C1 (stereo unspecified),"inconclusive: 14.1 µM [activator, single point]"
11,Cc1ccc(C2=NNC(c3cccc(F)c3)S2)cc1 (stereo unspecified),active: 6.31 µM
12,CCOc1ccccc1N1CCN(C(=O)CNC(=O)c2ccc(OC)c(OC)c2)CC1,inactive
13,Cc1ccccc1-n1nnnc1SCCCC(=O)c1ccc(F)cc1,"inconclusive: 22.4 µM [activator, single point]"
14,CC(C)OP(C)(=O)CN1CCN(CP(C)(=O)OC(C)C)CC1 (stereo unspecified),"inconclusive: 35.5 µM [inhibitor, single point]"
15,COc1cccc(C(=O)/C=C/c2ccc(OCC#N)c(OC)c2)c1,"inconclusive: 14.1 µM [inhibitor, single point]"
16,COc1ccc(N(C(=O)Cn2nnc(-c3ccccc3F)n2)C(C(=O)NCC2CCCO2)c2ccc(Cl)cc2)cc1 (stereo unspecified),inactive
17,CC(C)C(=O)Nc1ccc2c(c1)nc1n2CCSC1,"inconclusive: 35.5 µM [activator, single point]"
18,CC(C)Cc1nnc(NC(=O)CCC(=O)N2CCN(Cc3ccc(Cl)cc3)CC2)s1,"inconclusive: 10 µM [activator, partial curve]"
19,CCCn1cc(SCC(=O)Nc2ccc3c(c2)OCO3)c2ccccc21,"inconclusive: 20 µM [activator, single point]"
20,CCN1C(=O)N/C(=C/c2ccc(Sc3ccc(C)cc3)o2)C1=O,"inconclusive: 17.8 µM [activator, single point]"
21,Cc1ccc(NC(=O)CSc2nn3c(=O)c(C)nnc3s2)cc1Cl,inactive
22,Cc1ccc2[nH]c(=O)c(CN(CCCN(C)C)C(=S)NCCc3ccccc3)cc2c1,"inconclusive: 14.1 µM [inhibitor, single point]"
23,COc1cccc(NC(=S)N(Cc2ccco2)C(C)c2ccco2)c1 (stereo unspecified),"inconclusive: 12.6 µM [inhibitor, single point]"
